Measurements: PMC9181926, “Synthesis and Antiproliferative Activity of Novel Dehydroabietic Acid-Chalcone Hybrids” (Molecules, 2022)

Legend:
Format in all cases: cell-based, human
Hs578T cells = experiment: Antiproliferation assay (cell counting, 48 h) in Hs578T breast cancer cells; conditions: FB IC50 relative to Hs578T IC50
Description: (§1) Regarding the different characteristics of the used breast cancer cell lines, we can notice that MDA-MB-231 and Hs578T are triple negative.
(§2) Primary skin normal fibroblasts were kindly provided by Prof. Emer.

MCF-7 cells = experiment: Antiproliferation assay (cell counting, 48 h) in MCF-7 breast cancer cells; conditions: FB IC50 relative to MCF-7 IC50
Description: as §1, §2

MDA-MB-231 cells = experiment: Antiproliferation assay (cell counting, 48 h) in MDA-MB-231 breast cancer cells; conditions: FB IC50 relative to MDA-MB-231 IC50
Description: as §1, §2

Substance	Selectivity Index for Hs578T (Hs578T cells)	Selectivity Index for MCF-7 (MCF-7 cells)	Selectivity Index for MDA-MB-231 (MDA-MB-231 cells)
(1R,4aS)-methyl 7-((E)-3-(1H-pyrrol-3-yl)acryloyl)-6-hydroxy-1,4a-dimethyl-1,2,3,4, 4a,9,10,10a-octahydrophenanthrene-1-carboxylate [Compound 43]	1.99	7.70	1.13
(1R,4aS)-methyl 7-((E)-3-(2-chloroquinolin-4-yl)acryloyl)-6-hydroxy-1,4a-dimethyl-1,2,3,4, 4a,9,10,10a-octahydrophenanthrene-1-carboxylate [Compound 41]	0.77	1.99	1.12
